The assay deals with HFSC-Atm (chicken Atm with the HFSC affinity tag) (chicken). The assay is described as follows: affinity purification with mass spectrometry; HFSC-Atm from DT40 lysate (0.5% NP-40, 150 mM NaCl, benzonase) on a gravity flow Strep-tagII column; SILAC against untagged WT cells mixed 1:1; samples before and after IR (10 Gy, 1 h recovery).

No constants are given. Whether binding was seen depends on the method and setting. Binding seen in cells or lysates may run through a third protein. These calls come from enrichment with a bait or labelling near it, and not all partners need be listed.

B1: MCM3 (chicken) (protein, UniProt Q5ZMN2 1-812)
chain: MAAPAGGLGDAELREAQRDYLDFLDDEEDQGVYHGKVRDMISDNQYRLLVNINDLRRRNEKRANRLLSNAFEELIAFQRALKDFVASVDATYAKQYEDFYIGLEGSFGSKHVSPRTLTACFLSCIVCVEGIVTKCSLIRPKVVRSVHYCPATKKTIERRYTDLTSLDAFPSSTVYPTKDEENNPLETEYGLSVYKDHQTISIQEMPEKAPAGQLPRSVDVILDDDLVDKVKPGDRIQVVGTYRCLPGKKGGYTSGTFRTILIACHIKQMSKDARPLYSANDVAKIKRFSKSRSKDIFNQLARSLAPSIHGHEFIKKALLCMLLGGVEKVLENGSRIRGDINILLIGDPSVAKSQLLRYVLGTAPRAVGTTGRGSSGVGLTAAVTTDQETGERRLEAGAMVLADRGVVCIDEFDKMSDIDRTAIHEVMEQGRVTIAKAGIHARLNSRCSVLAAANPVYGRYDQYKTPMENIGLQDSLLSRFDLLFIMLDQMDSEQDREISDHVLRMHRYRNPNEQDGDAMPLGSAVEILATDDPDFAQEEEQELQVYEKHDDLLHGPNRRKEKIVSMEFMRKYIHVAKMIKPVLTQESADYIAEEYSSLRSQNQMNSDIARTSPVTARTLETLIRLSTAHAKARMSKTVDLQDAEAALELVQFAYFKKVLEKEKKRKKQVEDDSETEKEEEEEETQPEKEGRKQRRKKARTEGEEESYDPYDFSDAEQEMPEVQAHTPKTPESSATGEAKKPELADPRLKAFKAALLEVFKSSHAQSVGLKNVMESINRDNPEPFSLAGVKVALAHMQDDNQIMVSDDIIFLI
B1: the binding result is given as “binds”.

The values above are taken from PMC4011676.
